Assay results published in US7528205B2, “Photo radical generator, photo sensitive resin composition and article” (Dai Nippon Printing Co., Ltd., priority 2003, dated 2009).

Columns and labels:
[1] = Evaluation 1 of curability (coating layer with trifunctional acrylate, UV exposure, no hydrogen donor)
Experimental: (§1) Using a trifunctional acrylate (product name; M-305, manufactured by Toagosei Co., Ltd.) as polyfunctional monomers, the compounds 1 to 14, the comparative compounds 2 and 3 and a photoradical generator Irgacure 907 (product name; manufactured by Ciba Specialty Chemicals) were mixed with each polyfunctional monomer to prepare each THF solution of each photoradical generator.
(§2) The mixing was performed so that a ratio of the photoradical generator to the polyfunctional monomer is such that number of imide part of each of the compounds 1 to 14 and the comparative compounds 2 and 3 with respect to number of double bond of the polyfunctional monomer is 1/50 (number of imide part/number of polyfunctional monomer) or, in the case of Irgacure, number of the molecule with respect to number of double bond of the polyfunctional monomer is 1/50 (number of Irgacure 907/number of polyfunctional monomer).
(§3) Each solution was applied by spin coating to a glass substrate on which chromium was sputtered to obtain coating layers. Also, a layer without initiator component or comparative compounds and only containing trifunctional acrylate was formed as a blank.
(§4) A decrement of the peak at 810 cm^−1 was recorded with time by using an infrared spectrometer (product name: FTS6000; manufactured by BIO RAD) while exposing the above coating layer to ultraviolet rays, to confirm the degree of the disappearance of a double bond. The atmosphere around the sample during measurement was replaced with nitrogen. As the UV exposure apparatus, UV Spot Cure SP-III type (standard reflecting mirror type) manufactured by Ushio Inc. was used and as the UV lamp, USH-255BY (manufactured by Ushio Inc.) was used.

[2] = Evaluation 2 of curability (triethanolamine added as hydrogen donor)
Experimental: as §1, §2, §3, §4
In order to confirm whether or not the seven-membered ring imide structure-containing group was a hydrogen-drawing type radical generator, triethanolamine was added to THF solutions containing each of the compositions 1 to 14 used in the aforementioned Evaluation 1 of curability and trifunctional acrylate M305, coating layers were formed in the same manner as in the aforementioned Evaluation 1 of curability, and evaluated similarly. As comparative examples, each of the comparative compounds 1 and 3 was used.

COCCn1c(=O)c2ccccc2c2ccccc2c1=O [Compound 1]
Coloring in coating layer [1]: Transparent
Odor during exposure [1]: No
Coloring in coating layer [2]: Transparent
Odor during exposure [2]: No

CC(=O)OCCn1c(=O)c2ccccc2c2ccccc2c1=O [Compound 2]
Coloring in coating layer [1]: Transparent
Odor during exposure [1]: No
Coloring in coating layer [2]: Transparent
Odor during exposure [2]: No

CC(=O)OCCOCCn1c(=O)c2ccccc2c2ccccc2c1=O [Compound 3]
Coloring in coating layer [1]: Transparent
Odor during exposure [1]: No
Coloring in coating layer [2]: Transparent
Odor during exposure [2]: No

CC(=O)OCC(C(C)C)n1c(=O)c2ccccc2c2ccccc2c1=O (centres unmarked) [Compound 4]
Coloring in coating layer [1]: Transparent
Odor during exposure [1]: No
Coloring in coating layer [2]: Transparent
Odor during exposure [2]: No

C=COCCCn1c(=O)c2ccccc2c2ccccc2c1=O [Compound 5]
Coloring in coating layer [1]: Transparent
Odor during exposure [1]: No
Coloring in coating layer [2]: Transparent
Odor during exposure [2]: No

CC(=O)OCCOCCOCCn1c(=O)c2ccccc2c2ccccc2c1=O [Compound 6]
Coloring in coating layer [1]: Transparent
Odor during exposure [1]: No
Coloring in coating layer [2]: Transparent
Odor during exposure [2]: No

C=CC(=O)OCCn1c(=O)c2ccccc2c2ccccc2c1=O [Compound 7]
Coloring in coating layer [1]: Transparent
Odor during exposure [1]: No
Coloring in coating layer [2]: Transparent
Odor during exposure [2]: No

C=CC(=O)OCCOCCn1c(=O)c2ccccc2c2ccccc2c1=O [Compound 8]
Coloring in coating layer [1]: Transparent
Odor during exposure [1]: No
Coloring in coating layer [2]: Transparent
Odor during exposure [2]: No

C=CC(=O)OCCOCCOCCn1c(=O)c2ccccc2c2ccccc2c1=O [Compound 9]
Coloring in coating layer [1]: Transparent
Odor during exposure [1]: No
Coloring in coating layer [2]: Transparent
Odor during exposure [2]: No

O=c1c2ccccc2c2ccccc2c(=O)n1CCOCCn1c(=O)c2ccccc2c2ccccc2c1=O [Compound 10]
Coloring in coating layer [1]: Transparent
Odor during exposure [1]: No
Coloring in coating layer [2]: Transparent
Odor during exposure [2]: No

O=c1c2ccccc2c2ccccc2c(=O)n1CCOCCOCCOCCn1c(=O)c2ccccc2c2ccccc2c1=O [Compound 11]
Coloring in coating layer [1]: Transparent
Odor during exposure [1]: No
Coloring in coating layer [2]: Transparent
Odor during exposure [2]: No

O=c1c2ccccc2c2ccccc2c(=O)n1CCOCCOCCOCCOCCOCCn1c(=O)c2ccccc2c2ccccc2c1=O [Compound 12]
Coloring in coating layer [1]: Transparent
Odor during exposure [1]: No
Coloring in coating layer [2]: Transparent
Odor during exposure [2]: No

CN(C)CCn1c(=O)c2ccccc2c2ccccc2c1=O [Compound 13]
Coloring in coating layer [1]: Transparent
Odor during exposure [1]: No
Coloring in coating layer [2]: Transparent
Odor during exposure [2]: No

CC(=O)OCCN(CCn1c(=O)c2ccccc2c2ccccc2c1=O)C(C)=O [Compound 14]
Coloring in coating layer [1]: Transparent
Odor during exposure [1]: No
Coloring in coating layer [2]: Transparent
Odor during exposure [2]: No

CSc1ccc(C(=O)C(C)(C)N2CCOCC2)cc1 [Irg907, reference compound]
Coloring in coating layer [1]: Yellow
Odor during exposure [1]: Yes
Coloring in coating layer ([1]; listed as Irgacure 907): colored as yellow
Odor during exposure ([1]; listed as Irgacure 907): odor was generated during exposure

C=CC(=O)OCCN1C(=O)C2=C(CCCC2)C1=O [compound 2, reference compound]
Coloring in coating layer [1]: Transparent
Odor during exposure [1]: No
Coloring in coating layer [2]: Transparent
Odor during exposure [2]: No

COCCN1C(=O)c2cccc3cccc(c23)C1=O [compound 3, reference compound]
Coloring in coating layer [1]: Transparent
Odor during exposure [1]: No
Coloring in coating layer [2]: Transparent
Odor during exposure [2]: No
